Mtb growth Cornell: 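Whole-cell assay for inhibitors of Mycobacterium tuberculosis growth, labelled Cornell in the record; the read-out is not stated. The concentration is filed as 10 mM, unlikely as a test dose, so the dose is not known. Higher means stronger inhibition (inferred from two other growth screens of the library). About 53,000 compounds were tested under these conditions; 1.7% (about 900) showed 50% or more at least once.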
Mtb heat-shock: 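Assay on Mycobacterium tuberculosis, filed only as a heat shock assay from Cornell; the read-out is not stated. The concentration is filed as 10 mM, unlikely as a test dose, so the dose is not known. The record gives no direction; compounds that gave an IC50 in retests scored well above the rest, so higher reads as stronger inhibition. About 69,000 compounds were tested under these conditions; 1.4% (about 930) showed 50% or more at least once.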

Results are given as percent effect.
The controls that fix the scale are not given in the record; negative values are as filed.
Compounds were drawn at random from those tested, without regard to their results.
A dash means the value is not listed here; it may have been measured.

| # | Compound | Mtb growth Cornell | Mtb heat-shock |
|---|---|---|---|
| 1 | `CCCN(CCc1ccccc1)c1ncnc2oc(C)nc12` | 14.67 | -19.99 |
| 2 | `Nc1nc2c(c(N3CCC(CCn4cccn4)CC3)n1)CCNCC2` | -10.21 | -4.325 |
| 3 | `O=C(Nc1ccnn1Cc1ccc(Cl)cc1)C1CCS(=O)(=O)C1` (centres unmarked) | -30.31 | -1.47 |
| 4 | `[H][C@]12CC[C@]([H])(CN(Cc3[nH]cnc3C)C1)N(Cc1cc(C)no1)C2` | -0.1919 | -5.149 |
| 5 | `COc1cccc(N2CCN(C(=O)C(O)CC(C)C)CC2=O)c1` (centres unmarked) | 3.379 | 6.96 |
| 6 | `CCC(C)N1CCc2nc(N3CCCC3)nc(NC(C)C)c2C1` (centres unmarked) | -13.77 | -2.093 |
| 7 | `COCCC(C)NC(=O)Nc1ccc(N2CCOC2=O)c(OC)c1` (centres unmarked) | 14.48 | 4.04 |
| 8 | `Cc1ncsc1-c1cc(C(=O)NCCO)ccn1` | 0.2276 | -23.37 |
| 9 | `O=C(CCCOc1ccc(F)cc1F)N1CCCC1Cn1cccn1` (centres unmarked) | 35.19 | -15.6 |
| 10 | `Cc1ccc(S(=O)(=O)NC[C@H]2OC[C@@H](NCc3ccccn3)[C@@H]2O)cc1` | -2.252 | 1.126 |
| 11 | `Cc1nc(N2CCCC2)nc2c1CCN(C(=O)CC1CC1)CC2` | - | 3.353 |
| 12 | `COc1cc(C2(C(=O)N3CCN(CC(C)(C)O)CC3)CC2)ccc1C` | 32.04 | 3.751 |
| 13 | `COCCN1CCN(C(=O)C2CC=CC2)Cc2cccnc21` | 32.19 | 5.649 |
| 14 | `CCN1CCOCC12CCN(C(=O)c1ccsc1)CC2.O=C(O)C(F)(F)F` | 18.8 | 4.703 |
| 15 | `CCc1nc(NS(=O)(=O)c2ccc(F)cc2C)no1` | 9.889 | 2.654 |
| 16 | `Cc1ncc(C(=O)N2CCCC2(C)C(=O)N2CCOCC2)c(C)n1` (centres unmarked) | 5.434 | 4.323 |
| 17 | `Cc1cccnc1CN1CC[C@H](Oc2cccc(F)c2)[C@@](C)(O)C1` | - | 104.4 |
| 18 | `COCC(=O)Nc1nnc2n(Cc3cccc(OC)c3)[nH]c(C)c1-2` | 35.74 | 21.39 |
| 19 | `CN(C)CCN(C)C[C@@H]1CN(C(=O)NC2CCCC2)C[C@@H]1CO` | 25.1 | -46.26 |
| 20 | `C=C(C)COc1ccccc1C(=O)NCc1nc(C)cc(=O)[nH]1` | 11.83 | 9.273 |
| 21 | `COCCN1CCC(CN(C)c2ncnc3c2c(C)nn3C)C1` (centres unmarked) | -15.1 | 9.277 |
| 22 | `CC(C)c1n[nH]c(C2CN(C(=O)c3cc(C4CC4)on3)CCO2)n1` (centres unmarked) | - | -4.96 |
| 23 | `CN1CCN(C(=O)CCn2ncc3ccccc32)CC(C(N)=O)C1` (centres unmarked) | 40.84 | -7.277 |
| 24 | `Cn1cnnc1C1CCCN(C(=O)c2cc3ccccc3[nH]2)C1` (centres unmarked) | - | 5.075 |
| 25 | `Cc1cc(NCCS(C)(=O)=O)nc2ccccc12` | -3.234 | -6.094 |
| 26 | `O=C(O)[C@@H]1CN(Cc2nc3ncccn3n2)C[C@H]1c1cccc(F)c1` | -20.15 | 3.787 |
| 27 | `c1nc(N2CCCCC2Cn2cncn2)c2ccsc2n1` (centres unmarked) | -0.5475 | -9.654 |
| 28 | `COC(=O)C(C)(C)NC(=O)C1CC(=O)N(CC(F)(F)F)C1` (centres unmarked) | 16.94 | -4.739 |
| 29 | `O=C(O)C(F)(F)F.[H][C@@]12CN(C(=O)c3ccoc3)C[C@]1([H])OCCN2C` | 6.414 | -24.75 |
| 30 | `COC(=O)[C@@H]1CN(C(=O)NC(C)C)CCN1S(=O)(=O)c1ccccc1` | - | -7.428 |
| 31 | `CCc1nc(CN2CCCN(C(=O)C(C)n3ccnc3)CC2)cs1` (centres unmarked) | -18.04 | 23.7 |
| 32 | `COCCN(C)CCN1CC2(CCN(C3CCNCC3)CC2)OC1=O` | 14.09 | -16.02 |
| 33 | `O=C(O)c1cccc(CC2CCN(c3ncc(F)cn3)CC2)c1` | -15.2 | -5.505 |
| 34 | `CCOCC(=O)N(C)Cc1nc(C(F)(F)F)cs1` | -13.4 | -8.032 |
| 35 | `Cc1ccn(-c2cccc(C(=O)N3CCCC(n4ccnc4C)C3)c2)n1` (centres unmarked) | 15.71 | -3.901 |
| 36 | `CC(C)N(Cc1cccc(Cl)c1)Cc1nnsc1Cl` | 11.84 | -12.52 |
| 37 | `O=C(O)C(F)(F)F.[H][C@@]12CCN(Cc3ccco3)[C@]1([H])CC[C@H](COCC1CC1)O2` | -4.03 | 5.635 |
| 38 | `Cc1cc(C)n(C2CN(CCC(=O)NCCc3ccccc3)C2)n1` | 25.52 | 31.5 |
| 39 | `OCC1CCCN1c1cc(NCc2ccc(Cl)s2)ncn1` (centres unmarked) | - | 10.08 |
| 40 | `CN(C(=O)NCc1ccsc1)C1CCN(c2ccccc2)C1=O` (centres unmarked) | - | -4.884 |
| 41 | `CN(Cc1ccco1)C(=O)NC(Cn1ccnc1)C(C)(C)C` (centres unmarked) | -17.94 | -14.07 |
| 42 | `O=C(CCc1ccccc1)N1CCC(N2CCNC2=O)CC1` | - | -27.91 |
| 43 | `CCn1ccnc1CN1CCN(c2ncnc3ccccc23)CC1` | -10.41 | 6.517 |
| 44 | `O=C(Nc1ccc(-c2ccccc2)cn1)C1CCCN1C(=O)C1CC1` (centres unmarked) | -41.58 | -31.43 |
| 45 | `CC1(c2ccccc2)CCC(=O)N(CCCN2CCOCC2)C1` (centres unmarked) | 15.17 | -8.002 |
| 46 | `CCc1nc(CN(C(C)=O)C2CCN(CCc3ccncc3)C2)no1` (centres unmarked) | - | -11.3 |
| 47 | `CCOc1ccc(CCCC(=O)N2CCC(C(=O)NC)C2)cc1C` (centres unmarked) | 44.32 | -2.529 |
| 48 | `CCC[C@H]1CN(c2nc(CO)cs2)C[C@@H]1NC(=O)C1(COC)CC1` | 20.53 | 11.73 |
| 49 | `COc1cccc(OCC(=O)NCc2ccc3[nH]c(=O)[nH]c3c2)c1` | 34.47 | -7.409 |
| 50 | `CCCc1cc(=O)[nH]c2nnc(SCC(N)=O)n12` | -6.875 | -26.86 |
| 51 | `CC1(C)C[C@H](CCNC(=O)c2ccncc2)c2ccccc2O1` | -7.966 | 24.98 |
| 52 | `Cn1cccc1C(O)CNC(=O)COc1ccccc1F` (centres unmarked) | 31.15 | 9 |
| 53 | `CC(=O)N1CCCC(Cc2cnc(C(=O)N3CCC(C)CC3)cn2)C1` (centres unmarked) | 1.888 | 6.673 |
| 54 | `O=C1CN(C(=O)c2cc3c(F)cc(Br)cc3[nH]2)CCN1` | -2.508 | -22.54 |
| 55 | `Cn1cc(C(=O)N2CCCC(Cc3cnccn3)C2)cn1` (centres unmarked) | -13.99 | -6.162 |
| 56 | `CC(C)CN1C(=O)C2(CCCC2)NC1c1cn(C)c(=O)n(C)c1=O` (centres unmarked) | - | 7.768 |
| 57 | `FC(F)C(F)(F)COCc1ncnn1-c1ccc2c(c1)OCO2` | 41.36 | 9.504 |
| 58 | `CCc1csc(C2CCCN(C(=O)c3ccnc(N(C)C)c3)C2)n1` (centres unmarked) | -13.52 | 1.352 |
| 59 | `[H][C@]12CCN(S(=O)(=O)Cc3ccccc3)[C@@]1([H])CC[C@@H](COC)O2` | -39.85 | 14.39 |
| 60 | `O=C(NS(=O)(=O)c1ccc2c(c1)CCC2)C1COCCO1` (centres unmarked) | -13.67 | 5.31 |
| 61 | `Cc1cccc(CN2CCC3(CCN(c4ncccn4)CC3)C2=O)c1.O=C(O)C(F)(F)F` | 58.32 | 21.29 |
| 62 | `Cc1ccccc1CN(CCN(C)C)Cc1ccc(O)c(C(=O)O)c1` | 3.395 | -4.177 |
| 63 | `Cn1ncc2c1C(COCC1CC1)CN(Cc1ccsc1)C2` (centres unmarked) | - | -24.94 |
| 64 | `Cc1nc2[nH]cnc(Nc3cc(C)n(C)n3)c-2n1` | 19.94 | 6.588 |
| 65 | `CN(C)c1ccc(C(=O)N2CCN(Cc3cscn3)CC2)cc1F` | 25.42 | 19.71 |
| 66 | `COCCCC1CCCN(C(=O)CCc2csc(N)n2)C1` (centres unmarked) | - | -1.909 |
| 67 | `c1cnnc(N2CCC(c3nnc(Cn4ccnc4)n3C3CC3)CC2)c1` | -8.301 | -8.117 |
| 68 | `Cc1nc(CC2CCN(C(=O)C(c3ccccc3C)N(C)C)CC2)no1` (centres unmarked) | 7.321 | -30.6 |
| 69 | `CCSCCNC(=O)c1cnc(-c2ccccc2)nc1O` | - | -3.463 |
| 70 | `c1ccc(N2CCC(NCCc3ccc(-n4cccn4)cc3)CC2)nc1` | -3.055 | -8.683 |
| 71 | `CN(C)C(=O)CCC(=O)NCc1cccnc1-n1cnc2ccccc21` | -25.78 | -13.45 |
| 72 | `Cc1cccc(-n2cnnc2CCCN2CCOCC2)c1` | - | -13.91 |
| 73 | `COCc1nc(N(C)C)ncc1C(=O)NC(C)C` | - | 14.5 |
| 74 | `CNc1cc2c(nn1)CCN(C(=O)c1ccccc1-n1cccn1)C2` | -21.13 | -31.49 |
| 75 | `CCn1nc(C)c2ccn(CC(=O)NC(C)C)c(=O)c21` | -7.758 | -6.81 |
| 76 | `COCCOCC(=O)N1CCc2cc(Cl)cc(Cl)c2C1` | 24.33 | 6.208 |
| 77 | `CCN(Cc1ccco1)C(=O)C1=NN(c2ccccc2)C(=O)CN1` | 32.49 | -17.48 |
| 78 | `CSCCC(=O)N1CCCCC1CCn1cccn1` (centres unmarked) | - | -5.819 |
| 79 | `CN(C)CC(=O)N1CCC2(CC1)Cc1ccccc1CN(C)C2=O.O=C(O)C(F)(F)F` | -19.3 | -25.77 |
| 80 | `CN(C)CCN1CC(C(=O)NCc2ccc(C#N)cc2)CC1=O` (centres unmarked) | -3.211 | -11.29 |

For reference, 6 entries once more:

With COCCCC1CCCN(C(=O)CCc2csc(N)n2)C1 (centres unmarked) the screen gave Mtb heat-shock: -1.909%.
With Cc1ncsc1-c1cc(C(=O)NCCO)ccn1 the screen gave Mtb growth Cornell: 0.2276%; Mtb heat-shock: -23.37%.
With COCC(=O)Nc1nnc2n(Cc3cccc(OC)c3)[nH]c(C)c1-2 the screen gave Mtb growth Cornell: 35.74%; Mtb heat-shock: 21.39%.
With O=C(O)C(F)(F)F.[H][C@@]12CCN(Cc3ccco3)[C@]1([H])CC[C@H](COCC1CC1)O2 the screen gave Mtb growth Cornell: -4.03%; Mtb heat-shock: 5.635%.
With CCCN(CCc1ccccc1)c1ncnc2oc(C)nc12 the screen gave Mtb growth Cornell: 14.67%; Mtb heat-shock: -19.99%.
With O=C1CN(C(=O)c2cc3c(F)cc(Br)cc3[nH]2)CCN1 the screen gave Mtb growth Cornell: -2.508%; Mtb heat-shock: -22.54%.

Measurements from “University of Dundee, Small-Polar-MMV Screening Library” (2021), ChEMBL document CHEMBL3988442.